Reference: patent US9655822B2, “Hydrated lamellar phases or liposomes which contain a fatty monoamine or a cationic polymer which promotes intracellular penetration, and a cosmetic or pharmaceutical composition containing same, as well as a method of screening such a substance” (BASF Beauty Care Solutions France S.A.S., priority 2004, dated 2017)

The compounds below were run on normal human fibroblasts (assay: Intracellular penetration of fluorescent tracers, free or in liposomes (spectrofluorimetry)). Conditions: selection as tracer.
Type: cell-based
Description: The selection of the tracer necessitated the preparation and the purification of liposomes, according to the protocol described in Example 1, these liposomes containing varying concentrations of the various hydrosoluble or liposoluble tracers (Table 1, Annex 1). The controls—a free fluorescent tracer—are made by dissolution at the same concentration of fluorescent tracer in the dilution buffer, so as to quantify its cytotoxicty and its spontaneous penetration in the fibroblasts.
Practically, after extraction from a biopsy originating from abdominal plastic surgery, the fibroblasts are amplified in DF medium, i.e.: DMEM (Dulbecco's Modified Eagle's Medium)/Ham F12 glutamax 50/50 volume/volume, supplemented with 10% of calf serum, with penicillin at a final concentration of 100 UI/millilitre, with gentamicin at a final concentration of 1 microgram/millilitre, with amphotericin B at a final concentration of 1 microgram/millilitre.
Firstly, after centrifugation, the purified liposomes are taken up into DF culture medium, homogenised in a vortex, and are deposited at the rate of 1 ml per well on the fibroblasts cultivated in 24-well plates (Costar MW24). The controls are made under the same conditions. A non-treated control is also made.
The fibroblasts are incubated for 24 hours at 37° C. in the presence of the liposomes, and are then rinsed 3 times in pH 7.4 phosphate buffer. First of all, the fluorescence is evaluated dry by spectrofluorimetry with a Cytofluor 4000® (Millipore). Secondly, the intracellular fluorescence is observed for the molecules of interest on an Olympus® reverse microscope (IX70) by using the corresponding excitation filter (objective ×10, ×40 and ×100). Finally, the cytotoxicity of the fluorescent tracers is evaluated in a 96-well plate by incubation for 24 hours as described in Example 1.
The intracellular penetration of liposomes which contain 5% of soya lecithin, 0.01% of PFB-F or TRITC in the presence or not of 0.5% 25 kDa polyethylenimine (PEI), which are prepared according to the protocol described in Example 1, is analysed after incubation for 24 hours on human fibroblasts cultivated in a 24-well plate, as described in Example 2.
With “tetramethylrhodamine isothiocyanate [TRITC]” the Retained was “No Interferes”.
`Cc1ccc(N(CC(=O)[O-])CC(=O)[O-])c(OCCOc2cc3cc(-c4ncc(C(=O)[O-])o4)oc3cc2N(CC(=O)[O-])CC(=O)[O-])c1.[K+].[K+].[K+].[K+].[K+]` [#F-1200 Fura-2. pentapotassium salt, Fura-2. pentapotassium salt] was tested, and the Retained was “Yes”.
For `O=S(=O)([O-])c1cc(O)c2ccc3c(S(=O)(=O)[O-])cc(S(=O)(=O)[O-])c4ccc1c2c34.[Na+].[Na+].[Na+]` [hydroxypyrene trisulfonic acid, trisodium salt], the Retained was “No”.
“sulfo fluorescein diacetate [#S-1129 sulfo fluorescein diacetate]” was tested, and the Retained was “No”.
For `NNC(=O)COc1cc(S(=O)(=O)[O-])c2ccc3c(S(=O)(=O)[O-])cc(S(=O)(=O)[O-])c4ccc1c2c43.[Na+].[Na+].[Na+]` [cascade blue hydrazine trisodium salt], the Retained was “No”.
In the case of “carboxyethyl carboxyffluorescein [#B-1151 carboxyethyl carboxyffluorescein]”, the Retained is reported as “No”.
With “carboxy dichlorofluorescein [#C-369 carboxy dichlorofluorescein]” the Retained was “No”.
For `O=C1OC2(c3ccc(O)cc3Oc3cc(O)ccc32)c2ccc(NC(=O)c3c(F)c(F)c(F)c(F)c3F)cc21` [PFB-F, 5-pentafluorobenzoylaminofluorescein], the Retained was “Yes”.
“Lysosensor yellow/blue DND 160 [#L7545L Lysosensor yellow/blue DND 160]” was tested, and the Retained was “No”.
